Experimental data: patent publication US20030176678A1
Results are given in words; binding and its absence hold for the method and conditions named. Some results given as binding are weak or reduced against the parent protein; the word gives no strength. Sequences can lack the tags named with a protein.

Amino acid sequences for entries named in this document (tags omitted). A change or cut given only in a name is not applied to a line headed by its entry.
UniProt P04386: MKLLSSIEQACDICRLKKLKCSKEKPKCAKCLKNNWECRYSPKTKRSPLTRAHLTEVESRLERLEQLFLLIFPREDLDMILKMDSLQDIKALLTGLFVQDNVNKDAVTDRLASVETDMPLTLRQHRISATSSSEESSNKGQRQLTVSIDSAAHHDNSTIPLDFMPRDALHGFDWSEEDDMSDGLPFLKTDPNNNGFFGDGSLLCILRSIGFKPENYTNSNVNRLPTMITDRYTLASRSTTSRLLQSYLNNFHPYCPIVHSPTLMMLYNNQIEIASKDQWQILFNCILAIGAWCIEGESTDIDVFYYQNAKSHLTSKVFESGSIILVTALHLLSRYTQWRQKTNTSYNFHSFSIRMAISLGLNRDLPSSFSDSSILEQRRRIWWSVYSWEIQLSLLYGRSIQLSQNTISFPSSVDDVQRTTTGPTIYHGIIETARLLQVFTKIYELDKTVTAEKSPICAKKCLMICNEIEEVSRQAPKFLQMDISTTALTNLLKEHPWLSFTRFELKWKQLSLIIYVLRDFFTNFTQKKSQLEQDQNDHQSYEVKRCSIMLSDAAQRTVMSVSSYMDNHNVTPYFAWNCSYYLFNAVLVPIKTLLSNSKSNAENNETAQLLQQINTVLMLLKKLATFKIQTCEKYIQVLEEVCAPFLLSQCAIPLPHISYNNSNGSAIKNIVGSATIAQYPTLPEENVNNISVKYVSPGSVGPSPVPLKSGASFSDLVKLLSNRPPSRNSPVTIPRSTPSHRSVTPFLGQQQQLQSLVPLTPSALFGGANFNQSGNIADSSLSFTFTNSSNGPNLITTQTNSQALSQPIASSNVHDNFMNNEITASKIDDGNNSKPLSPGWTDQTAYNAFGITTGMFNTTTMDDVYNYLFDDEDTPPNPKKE
UniProt P17181: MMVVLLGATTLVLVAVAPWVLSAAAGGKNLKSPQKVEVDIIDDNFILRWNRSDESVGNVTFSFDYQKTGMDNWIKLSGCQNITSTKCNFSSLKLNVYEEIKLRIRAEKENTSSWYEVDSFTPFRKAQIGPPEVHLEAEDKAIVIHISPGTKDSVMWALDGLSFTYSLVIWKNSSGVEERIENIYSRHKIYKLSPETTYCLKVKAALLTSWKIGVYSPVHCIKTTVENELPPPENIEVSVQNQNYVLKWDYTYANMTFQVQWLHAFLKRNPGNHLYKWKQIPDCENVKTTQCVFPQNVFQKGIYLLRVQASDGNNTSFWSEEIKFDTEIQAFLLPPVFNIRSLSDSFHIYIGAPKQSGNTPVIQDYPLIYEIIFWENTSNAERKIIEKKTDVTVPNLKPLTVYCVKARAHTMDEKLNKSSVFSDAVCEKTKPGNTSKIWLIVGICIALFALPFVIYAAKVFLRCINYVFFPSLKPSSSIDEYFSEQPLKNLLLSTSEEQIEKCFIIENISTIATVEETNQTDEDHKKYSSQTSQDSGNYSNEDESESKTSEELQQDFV

Experiments:
[1] = target: T1, IFNAR1-IC domain fused to the Gal4 DNA binding domain (pGBT10-IFNAR1-IC) (human) (UniProt P04386+P17181); assay: yeast two-hybrid
[2] = target: T1, IFNAR1-IC domain fused to the Gal4 DNA binding domain (pGBT10-IFNAR1-IC) (human); assay: yeast two-hybrid in SFY526, X-gal staining positive

binding [1]: binds
binding [2]: binds
B1: IR1B1 fused to the Gal4 activation domain (pACT clone IR1B1) (protein, not shown: large carriers; small tags and cut ends)
chain: MGGSGSRLSKELLAEYQDLTFLTKQEILLAHRRFCELLPQEQRSVESSLRAQVPFEQILSLPELKANPFKERICRVFSTSPAKDSLSFEDFLDLLSVFSDTATPDIKSHYAFRIFDFDDDGTLNREDLSRLVNCLTGEGEDTRLSASEMKQLIDYILEESDIDRDGTINLSEFQHVISRSPDFASSFKIVL
